Results are given in words; binding and its absence hold for the method and conditions named. In cells and extracts the contact can be indirect. Some results given as binding are weak or reduced against the parent protein; the word gives no strength. Where a sequence is shown, tags or fusion partners need not be part of it.
Assays:
Assay in all cases: co-IP; anti-FLAG M2 agarose from HCT116 lysate in LB1 (60 mM Hepes pH 7.6, 150 mM NaCl, 150 mM KCl, 10 mM MgCl2, 5% glycerol, 0.25 mM ATPγS, 1.0% Triton X-100, 0.5 mM EDTA), 4 °C, eluted with FLAG peptide; immunoblot for PEX6
[1] = target: T1, FLAG-PEX1^WT (human PEX1, N-terminal FLAG knock-in) (human (endogenous in HCT116)) (UniProt O43933)
T1 sequence: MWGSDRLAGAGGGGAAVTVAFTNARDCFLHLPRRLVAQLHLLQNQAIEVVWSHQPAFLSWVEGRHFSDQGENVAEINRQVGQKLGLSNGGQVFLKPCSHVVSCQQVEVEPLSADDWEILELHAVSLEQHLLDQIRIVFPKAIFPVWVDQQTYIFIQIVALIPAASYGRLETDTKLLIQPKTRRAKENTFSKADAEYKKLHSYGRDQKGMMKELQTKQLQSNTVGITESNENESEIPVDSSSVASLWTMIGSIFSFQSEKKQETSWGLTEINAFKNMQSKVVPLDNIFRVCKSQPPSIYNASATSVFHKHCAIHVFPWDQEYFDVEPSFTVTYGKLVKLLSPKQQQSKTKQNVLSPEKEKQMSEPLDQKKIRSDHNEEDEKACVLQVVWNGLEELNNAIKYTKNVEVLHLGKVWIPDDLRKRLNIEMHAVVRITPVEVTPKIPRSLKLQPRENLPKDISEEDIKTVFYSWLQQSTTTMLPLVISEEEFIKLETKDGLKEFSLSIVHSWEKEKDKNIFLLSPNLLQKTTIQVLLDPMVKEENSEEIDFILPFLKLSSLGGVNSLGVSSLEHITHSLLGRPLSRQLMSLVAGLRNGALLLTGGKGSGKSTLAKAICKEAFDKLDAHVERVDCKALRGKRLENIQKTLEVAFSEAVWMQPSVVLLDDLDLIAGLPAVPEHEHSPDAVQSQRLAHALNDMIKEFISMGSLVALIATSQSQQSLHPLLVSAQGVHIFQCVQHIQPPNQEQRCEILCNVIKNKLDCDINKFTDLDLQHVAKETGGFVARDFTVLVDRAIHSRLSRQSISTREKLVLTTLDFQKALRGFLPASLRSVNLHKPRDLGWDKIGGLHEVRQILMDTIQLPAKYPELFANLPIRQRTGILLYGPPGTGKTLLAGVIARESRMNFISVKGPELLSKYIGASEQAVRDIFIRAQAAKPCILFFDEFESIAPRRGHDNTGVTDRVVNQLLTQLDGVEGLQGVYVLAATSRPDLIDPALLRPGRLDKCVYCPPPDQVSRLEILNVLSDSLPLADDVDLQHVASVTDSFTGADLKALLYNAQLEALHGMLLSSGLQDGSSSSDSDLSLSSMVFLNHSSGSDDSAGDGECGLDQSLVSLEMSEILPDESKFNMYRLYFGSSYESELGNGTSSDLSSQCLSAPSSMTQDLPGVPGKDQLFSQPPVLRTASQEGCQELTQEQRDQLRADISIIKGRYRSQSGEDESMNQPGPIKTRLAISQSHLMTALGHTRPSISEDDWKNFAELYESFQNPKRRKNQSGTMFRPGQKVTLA

[2] = target: T2, PEX1^WT-FLAG (human PEX1, C-terminal FLAG knock-in) (human (endogenous in HCT116)) (UniProt O43933)
T2 sequence: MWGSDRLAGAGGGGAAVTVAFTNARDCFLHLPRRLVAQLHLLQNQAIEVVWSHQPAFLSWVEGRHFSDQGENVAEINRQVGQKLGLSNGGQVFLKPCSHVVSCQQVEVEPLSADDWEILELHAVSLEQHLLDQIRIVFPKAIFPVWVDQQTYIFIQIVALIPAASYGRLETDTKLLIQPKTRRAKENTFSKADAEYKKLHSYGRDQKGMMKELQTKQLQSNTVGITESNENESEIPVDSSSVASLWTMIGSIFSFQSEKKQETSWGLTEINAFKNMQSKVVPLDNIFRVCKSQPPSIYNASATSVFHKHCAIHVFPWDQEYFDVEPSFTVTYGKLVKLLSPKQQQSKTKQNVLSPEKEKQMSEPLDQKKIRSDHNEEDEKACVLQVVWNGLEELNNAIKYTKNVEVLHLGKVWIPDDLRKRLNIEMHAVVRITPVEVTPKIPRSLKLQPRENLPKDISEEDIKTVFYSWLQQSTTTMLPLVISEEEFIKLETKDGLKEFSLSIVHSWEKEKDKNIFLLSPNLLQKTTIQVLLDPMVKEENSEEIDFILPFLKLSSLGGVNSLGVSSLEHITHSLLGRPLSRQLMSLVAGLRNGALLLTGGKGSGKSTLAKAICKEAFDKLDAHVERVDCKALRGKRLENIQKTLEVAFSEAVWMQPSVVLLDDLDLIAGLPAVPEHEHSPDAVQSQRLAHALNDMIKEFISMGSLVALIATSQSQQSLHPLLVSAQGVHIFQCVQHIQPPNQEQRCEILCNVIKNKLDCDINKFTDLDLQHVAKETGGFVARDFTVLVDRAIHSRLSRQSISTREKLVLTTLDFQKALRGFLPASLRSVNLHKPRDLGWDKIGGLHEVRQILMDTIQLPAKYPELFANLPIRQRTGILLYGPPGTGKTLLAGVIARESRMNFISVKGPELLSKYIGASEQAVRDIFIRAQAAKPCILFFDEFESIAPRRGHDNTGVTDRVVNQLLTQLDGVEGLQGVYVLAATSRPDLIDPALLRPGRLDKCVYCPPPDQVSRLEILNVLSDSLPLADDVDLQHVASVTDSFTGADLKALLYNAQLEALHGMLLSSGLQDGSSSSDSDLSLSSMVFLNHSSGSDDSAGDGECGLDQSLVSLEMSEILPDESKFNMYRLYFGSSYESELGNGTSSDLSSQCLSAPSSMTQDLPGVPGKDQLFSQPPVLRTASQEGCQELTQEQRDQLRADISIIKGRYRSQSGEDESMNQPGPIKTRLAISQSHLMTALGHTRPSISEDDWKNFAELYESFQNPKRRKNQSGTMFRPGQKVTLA

[3] = target: T3, FLAG-PEX1^G843D (human PEX1 G843D, N-terminal FLAG knock-in) (human (endogenous in HCT116)) (UniProt O43933)
T3 sequence: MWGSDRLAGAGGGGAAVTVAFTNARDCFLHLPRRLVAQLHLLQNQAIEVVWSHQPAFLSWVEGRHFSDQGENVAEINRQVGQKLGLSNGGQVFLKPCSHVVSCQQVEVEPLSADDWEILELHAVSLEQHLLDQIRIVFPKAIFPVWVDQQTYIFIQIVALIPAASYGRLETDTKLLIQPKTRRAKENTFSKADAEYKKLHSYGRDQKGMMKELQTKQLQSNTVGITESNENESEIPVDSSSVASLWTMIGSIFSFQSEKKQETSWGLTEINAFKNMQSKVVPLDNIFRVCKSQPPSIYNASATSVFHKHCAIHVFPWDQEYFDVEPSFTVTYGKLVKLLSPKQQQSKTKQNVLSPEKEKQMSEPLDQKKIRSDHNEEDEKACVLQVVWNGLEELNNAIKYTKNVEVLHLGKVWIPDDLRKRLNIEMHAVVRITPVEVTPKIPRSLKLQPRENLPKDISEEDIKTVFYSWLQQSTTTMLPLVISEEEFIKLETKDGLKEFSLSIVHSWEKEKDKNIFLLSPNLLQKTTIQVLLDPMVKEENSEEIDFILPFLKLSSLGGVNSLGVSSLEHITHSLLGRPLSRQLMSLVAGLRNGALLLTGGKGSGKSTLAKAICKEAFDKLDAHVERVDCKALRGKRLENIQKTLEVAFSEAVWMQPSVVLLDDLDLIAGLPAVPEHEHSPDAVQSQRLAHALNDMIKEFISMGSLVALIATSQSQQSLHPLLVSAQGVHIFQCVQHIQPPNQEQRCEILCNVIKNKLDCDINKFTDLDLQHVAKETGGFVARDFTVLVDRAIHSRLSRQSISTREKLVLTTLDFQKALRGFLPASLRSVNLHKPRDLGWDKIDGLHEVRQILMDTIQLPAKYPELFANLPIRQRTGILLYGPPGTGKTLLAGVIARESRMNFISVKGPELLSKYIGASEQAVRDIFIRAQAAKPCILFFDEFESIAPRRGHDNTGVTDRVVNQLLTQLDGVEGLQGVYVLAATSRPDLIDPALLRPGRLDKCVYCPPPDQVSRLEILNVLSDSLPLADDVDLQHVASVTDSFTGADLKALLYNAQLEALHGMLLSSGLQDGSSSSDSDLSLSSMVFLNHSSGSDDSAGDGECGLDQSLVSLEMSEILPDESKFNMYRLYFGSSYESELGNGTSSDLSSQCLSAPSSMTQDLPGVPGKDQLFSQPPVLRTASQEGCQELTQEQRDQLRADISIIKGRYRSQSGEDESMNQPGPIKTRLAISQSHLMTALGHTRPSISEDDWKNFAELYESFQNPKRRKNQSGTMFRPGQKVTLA

[4] = target: T4, PEX1^G843D-FLAG (human PEX1 G843D, C-terminal FLAG knock-in) (human (endogenous in HCT116)) (UniProt O43933)
T4 sequence: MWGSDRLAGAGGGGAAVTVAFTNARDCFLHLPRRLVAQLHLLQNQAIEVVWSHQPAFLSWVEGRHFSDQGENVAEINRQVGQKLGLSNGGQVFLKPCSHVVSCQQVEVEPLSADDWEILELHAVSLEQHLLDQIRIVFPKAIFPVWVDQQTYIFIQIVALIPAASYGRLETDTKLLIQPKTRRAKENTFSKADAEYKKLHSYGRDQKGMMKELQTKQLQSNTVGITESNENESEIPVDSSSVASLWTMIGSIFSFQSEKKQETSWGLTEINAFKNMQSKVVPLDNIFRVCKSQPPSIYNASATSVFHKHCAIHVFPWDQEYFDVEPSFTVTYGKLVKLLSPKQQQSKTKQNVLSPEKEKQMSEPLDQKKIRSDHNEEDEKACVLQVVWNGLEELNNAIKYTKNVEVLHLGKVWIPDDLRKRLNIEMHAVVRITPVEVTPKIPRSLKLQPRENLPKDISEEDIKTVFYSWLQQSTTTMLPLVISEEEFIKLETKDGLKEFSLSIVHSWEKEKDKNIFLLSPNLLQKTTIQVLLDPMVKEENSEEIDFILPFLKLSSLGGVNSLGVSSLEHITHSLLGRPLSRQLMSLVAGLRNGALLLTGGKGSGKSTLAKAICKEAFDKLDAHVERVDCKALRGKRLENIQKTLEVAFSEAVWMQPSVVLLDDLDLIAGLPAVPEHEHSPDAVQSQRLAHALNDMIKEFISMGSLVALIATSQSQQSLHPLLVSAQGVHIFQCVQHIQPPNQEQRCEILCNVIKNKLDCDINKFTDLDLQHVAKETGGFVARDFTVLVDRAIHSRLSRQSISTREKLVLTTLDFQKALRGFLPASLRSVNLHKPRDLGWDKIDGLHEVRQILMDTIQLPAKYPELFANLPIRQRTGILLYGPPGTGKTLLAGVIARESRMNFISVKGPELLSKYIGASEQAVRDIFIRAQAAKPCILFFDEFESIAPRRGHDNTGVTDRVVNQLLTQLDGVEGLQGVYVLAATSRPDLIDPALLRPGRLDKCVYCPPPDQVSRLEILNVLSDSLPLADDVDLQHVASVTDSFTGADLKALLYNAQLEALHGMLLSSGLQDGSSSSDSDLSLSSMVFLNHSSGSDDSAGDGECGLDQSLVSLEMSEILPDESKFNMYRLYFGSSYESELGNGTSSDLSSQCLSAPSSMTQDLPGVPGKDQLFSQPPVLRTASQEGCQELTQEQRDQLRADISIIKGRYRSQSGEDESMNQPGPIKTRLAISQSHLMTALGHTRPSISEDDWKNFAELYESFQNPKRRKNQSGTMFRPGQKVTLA

binding [1]: binds
binding [2]: binds
binding [3]: binds
binding [4]: binds
B1: PEX6 (human) (protein, UniProt Q13608 1-980)
chain: MALAVLRVLEPFPTETPPLAVLLPPGGPWPAAELGLVLALRPAGESPAGPALLVAALEGPDAGTEEQGPGPPQLLVSRALLRLLALGSGAWVRARAVRRPPALGWALLGTSLGPGLGPRVGPLLVRRGETLPVPGPRVLETRPALQGLLGPGTRLAVTELRGRARLCPESGDSSRPPPPPVVSSFAVSGTVRRLQGVLGGTGDSLGVSRSCLRGLGLFQGEWVWVAQARESSNTSQPHLARVQVLEPRWDLSDRLGPGSGPLGEPLADGLALVPATLAFNLGCDPLEMGELRIQRYLEGSIAPEDKGSCSLLPGPPFARELHIEIVSSPHYSTNGNYDGVLYRHFQIPRVVQEGDVLCVPTIGQVEILEGSPEKLPRWREMFFKVKKTVGEAPDGPASAYLADTTHTSLYMVGSTLSPVPWLPSEESTLWSSLSPPGLEALVSELCAVLKPRLQPGGALLTGTSSVLLRGPPGCGKTTVVAAACSHLGLHLLKVPCSSLCAESSGAVETKLQAIFSRARRCRPAVLLLTAVDLLGRDRDGLGEDARVMAVLRHLLLNEDPLNSCPPLMVVATTSRAQDLPADVQTAFPHELEVPALSEGQRLSILRALTAHLPLGQEVNLAQLARRCAGFVVGDLYALLTHSSRAACTRIKNSGLAGGLTEEDEGELCAAGFPLLAEDFGQALEQLQTAHSQAVGAPKIPSVSWHDVGGLQEVKKEILETIQLPLEHPELLSLGLRRSGLLLHGPPGTGKTLLAKAVATECSLTFLSVKGPELINMYVGQSEENVREVFARARAAAPCIIFFDELDSLAPSRGRSGDSGGVMDRVVSQLLAELDGLHSTQDVFVIGATNRPDLLDPALLRPGRFDKLVFVGANEDRASQLRVLSAITRKFKLEPSVSLVNVLDCCPPQLTGADLYSLCSDAMTAALKRRVHDLEEGLEPGSSALMLTMEDLLQAAARLQPSVSEQELLRYKRIQRKFAAC

Reference: paper PMC12147174, “PEX1^G843D remains functional in peroxisome biogenesis but is rapidly degraded by the proteasome” (The Journal of Biological Chemistry, 2025)
